{"source": "PubChem BioAssay AID1224830, NIAID – 2016", "purpose": "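Regulators of TLR4 signalling towards TNF-alpha in macrophage-like cells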 (primary screen)", "system": "human THP-1 monocytic leukaemia cells, TNF dual-luciferase reporter clone, PMA-differentiated to macrophage-like cells", "reagents": "siRNA pool against human genes, 50 nM", "timing": "LPS for 4 h, given about 3 days after siRNA transfection", "treatment": "bacterial LPS (TLR4 ligand), 10 ng/ml", "measurement": "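Ratio of firefly to renilla light, scaled to the plate median and expressed as a robust z-score per replicate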", "direction": "TNF reporter robust z-score: higher = stronger TNF reporter response to LPS", "hit rule": "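Each well counts as active if its z-score is over 2.8 or under -1.5; controls are left without a call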", "note": "Here is one part, drawn at random, of about 18,000 reagents tested. Of all reagents, about 2,900 (16%) got an active call. 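Calls are made per well; low scores hint the gene aids the LPS response, high scores that it dampens it.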 Unmarked entries are inactive. Repeated entries: four replicate wells of each siRNA pool. No sequences are given here."}
{"gene": "XIRP1", "TNF reporter robust z-score": -0.22}
{"gene": "XIRP1", "TNF reporter robust z-score": 0.23}
{"gene": "XIRP1", "TNF reporter robust z-score": 0.04}
{"gene": "XIRP1", "TNF reporter robust z-score": 0.09}
{"gene": "FRMD3", "TNF reporter robust z-score": 0.78}
{"gene": "FRMD3", "TNF reporter robust z-score": 1.09}
{"gene": "FRMD3", "TNF reporter robust z-score": 1.78}
{"gene": "FRMD3", "TNF reporter robust z-score": 1.83}
{"gene": "RBM6", "TNF reporter robust z-score": -0.3}
{"gene": "RBM6", "TNF reporter robust z-score": -0.13}
{"gene": "RBM6", "TNF reporter robust z-score": -0.38}
{"gene": "RBM6", "TNF reporter robust z-score": 0.3}
{"gene": "WARS1", "TNF reporter robust z-score": 0.81}
{"gene": "WARS1", "TNF reporter robust z-score": 2.38}
{"gene": "WARS1", "TNF reporter robust z-score": 0.17}
{"gene": "WARS1", "TNF reporter robust z-score": 1.06}
{"gene": "PKIG", "TNF reporter robust z-score": "-1.68 (active)"}
{"gene": "PKIG", "TNF reporter robust z-score": -1.47}
{"gene": "PKIG", "TNF reporter robust z-score": "-1.61 (active)"}
{"gene": "PKIG", "TNF reporter robust z-score": -1.35}
{"gene": "TTBK2", "TNF reporter robust z-score": -0.46}
{"gene": "TTBK2", "TNF reporter robust z-score": -1.35}
{"gene": "TTBK2", "TNF reporter robust z-score": -0.66}
{"gene": "TTBK2", "TNF reporter robust z-score": -0.81}
{"gene": "BIRC7", "TNF reporter robust z-score": -1.4}
{"gene": "BIRC7", "TNF reporter robust z-score": 0.74}
{"gene": "BIRC7", "TNF reporter robust z-score": -0.31}
{"gene": "BIRC7", "TNF reporter robust z-score": 0.24}
{"gene": "CPNE9", "TNF reporter robust z-score": 1.02}
{"gene": "CPNE9", "TNF reporter robust z-score": -0.41}
{"gene": "CPNE9", "TNF reporter robust z-score": -0.88}
{"gene": "CPNE9", "TNF reporter robust z-score": -0.45}
{"gene": "CPNE9", "TNF reporter robust z-score": 1.36}
{"gene": "CPNE9", "TNF reporter robust z-score": 0.64}
{"gene": "CPNE9", "TNF reporter robust z-score": -0.65}
{"gene": "CPNE9", "TNF reporter robust z-score": 0.86}
{"gene": "CREB3L2", "TNF reporter robust z-score": 0.69}
{"gene": "CREB3L2", "TNF reporter robust z-score": 0.62}
{"gene": "CREB3L2", "TNF reporter robust z-score": 0.07}
{"gene": "CREB3L2", "TNF reporter robust z-score": 0.25}
{"gene": "PFDN6", "TNF reporter robust z-score": 0.42}
{"gene": "PFDN6", "TNF reporter robust z-score": 0.11}
{"gene": "PFDN6", "TNF reporter robust z-score": -0.67}
{"gene": "PFDN6", "TNF reporter robust z-score": 0.4}
{"gene": "FH", "TNF reporter robust z-score": 0.02}
{"gene": "FH", "TNF reporter robust z-score": 1.17}
{"gene": "FH", "TNF reporter robust z-score": -0.32}
{"gene": "FH", "TNF reporter robust z-score": -0.65}
{"gene": "OR8B4", "TNF reporter robust z-score": -0.89}
{"gene": "OR8B4", "TNF reporter robust z-score": -0.55}
{"gene": "OR8B4", "TNF reporter robust z-score": -0.68}
{"gene": "OR8B4", "TNF reporter robust z-score": 0.56}
{"gene": "CFHR3", "TNF reporter robust z-score": 0.42}
{"gene": "CFHR3", "TNF reporter robust z-score": 0.1}
{"gene": "CFHR3", "TNF reporter robust z-score": 1.28}
{"gene": "CFHR3", "TNF reporter robust z-score": -0.77}
{"gene": "MRPS34", "TNF reporter robust z-score": 1.33}
{"gene": "MRPS34", "TNF reporter robust z-score": 1.26}
{"gene": "MRPS34", "TNF reporter robust z-score": 1.17}
{"gene": "MRPS34", "TNF reporter robust z-score": 1.16}

Targets listed so far whose target name begins with B or b:
{"gene": "BIRC7", "TNF reporter robust z-score": -1.4}
{"gene": "BIRC7", "TNF reporter robust z-score": 0.74}
{"gene": "BIRC7", "TNF reporter robust z-score": -0.31}
{"gene": "BIRC7", "TNF reporter robust z-score": 0.24}
